Experimental data: patent publication US20080181891A1
These are yes or no findings as the source states them, for the method shown.

Target: canine IGF-IR (canine)
Assay: cells treated with antibody, IGF-I stimulation, immunoprecipitation of IGF-IR and Western blot

- binding: no binding (tested: 1 µg/ml)
B1: anti-IGF-IR antibody 2.12.1fx (antibody, human IgG2, kappa, V domains shown)
VH: QVQLVESGGGLVKPGGSLRLSCAASGFTFSDYYMSWIRQAPGKGLEWVSYISSSGSTRDYADSVKGRFTISRDNAKNSLYLQMNSLRAEDTAVYYCARDGVETTFYYYYYGMDVWGQGTTVTVSS
VL: DIQMTQSPSSLSASVGDRVTITCRASQDIRRDLGWYQQKPGKAPKRLIYAASRLQSGVPSRFSGSGSGTEFTLTISSLQPEDFATYYCLQHNNYPRTFGQGTKVEIKR
